Data taken from PubChem BioAssay AID651814 (National Center for Advancing Translational Sciences (NCATS), 2012).
Hit rate of the full screen: of about 2,100 compounds, about 590 (28%) were called active. Inconclusive results, whose numbers are uncertain, are shown with a selection of clear calls. Calls follow the shape of the dose curve; as a rule, active = well fitted inhibition curve with a large enough effect; inconclusive = small, poorly fitted or top-dose-only effect; inactive = flat fitted curve, though single readings scatter. Where the call is inconclusive, the potency comes from a doubtful curve fit.

Sequences of proteins named here, by UniProt entry; tags and fusion partners are left off. A change or cut given only in a name is not applied to a line headed by its entry.
UniProt Q8IUX4: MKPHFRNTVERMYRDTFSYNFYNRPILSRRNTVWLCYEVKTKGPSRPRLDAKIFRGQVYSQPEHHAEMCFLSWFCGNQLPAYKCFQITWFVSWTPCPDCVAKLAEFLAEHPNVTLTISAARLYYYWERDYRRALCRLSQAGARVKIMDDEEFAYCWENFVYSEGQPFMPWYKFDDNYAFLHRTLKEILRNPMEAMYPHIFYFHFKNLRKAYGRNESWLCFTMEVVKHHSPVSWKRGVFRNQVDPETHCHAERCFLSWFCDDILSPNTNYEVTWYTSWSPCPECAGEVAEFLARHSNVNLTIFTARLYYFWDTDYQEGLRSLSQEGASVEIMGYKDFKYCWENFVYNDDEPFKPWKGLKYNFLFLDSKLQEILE

target: DNA dC->dU-editing enzyme APOBEC-3F (Homo sapiens) (UniProt Q8IUX4); assay: qHTS for inhibitors of Vif-A3F interactions: Cherry picks; settings: HeLa A3F-eYFP + Vif (tagged APOBEC3F with the HIV-1 protein that degrades it), eYFP fluorescence, 24 h; also: nearly all actives have a fitted effect of over 70% in size;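 as to max response: % of control where 0% means no effect; active compounds raise eYFP fluorescence by blocking Vif-driven A3F loss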
How it was run: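 HeLa cells stably expressing A3F-eYFP plus Vif, cultured overnight, then exposed to compounds at several concentrations for 24 h at 37 deg C. Reduced Vif-driven degradation read as rising eYFP fluorescence (488 nm ex/500-530 nm em) by laser-scanning cytometry; MG132 as positive control.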
Potency is read from the fitted curve at half-maximal effect.

Row | SMILES | Potency | max response
1 | CCOC(=O)c1c(-c2ccc(C)cc2)csc1NC(=O)/C(C#N)=C/c1ccc(O)c(OC)c1 | inconclusive: 3.53 µM [inhibitor, single point] | 
2 | Cc1ccc(/C=C2/CNC/C(=C/c3ccc(C)cc3)C2=O)cc1 | inconclusive: 14 µM [inhibitor, single point] | 
3 | COc1ccc2oc(=Nc3ccccc3)c(-c3nc4ccccc4[nH]3)cc2c1 |  | inactive: -13%
4 | FC(F)(Cl)c1nnc2ccc(Cl)nn12 | inconclusive: 14 µM [inhibitor, single point] | 
5 | COc1ccc(-c2coc3cc4oc(=O)cc(-c5ccccc5)c4cc23)cc1F | inconclusive: 1.98 µM [inhibitor, full curve] | 
6 | COc1cccc(-c2cnc3c(NC=O)cc(-c4cc(OC)c(OC)c(OC)c4)cn23)c1 | inconclusive: 15.8 µM [inhibitor, partial curve] | 
7 | CCCOc1ccccc1C1CC(=O)Nc2cc3c(cc21)OCO3 (stereo not drawn) |  | inactive: -14.8%
8 | COc1ccc(/C=N/NC(=O)c2cccnc2)cc1CSc1ccccn1 | inconclusive: 7.9 µM [inhibitor, partial curve] | 
9 | CC(=O)c1cccc(NC(=O)/C=C/c2ccc([N+](=O)[O-])s2)c1 | active: 5.17 µM | 
10 | COc1ccc(/C=C/C(=O)c2ccc([N+](=O)[O-])o2)cc1 | inconclusive: 22.3 µM [inhibitor, single point] | 
11 | CCOc1cc(S(=O)(=O)NCc2ccc(OC)cc2)c(OCC)cc1-n1cnnn1 | inconclusive: 12.5 µM [inhibitor, partial curve] | 
12 | COC(=O)c1ccc(Cl)cc1NC(=O)N1CC=C(c2c[nH]c3ccccc23)CC1 | inconclusive: 16.4 µM [inhibitor, single point] | 
13 | COc1ccc(NC(=O)c2cc(-c3ccccc3OC)on2)cc1 | inconclusive: 1.4 µM [inhibitor, full curve] | 
14 | O=C1OC(/C(=C\Nc2cc(Cl)ccc2O)[N+](=O)[O-])c2ccccc21 (stereo not drawn) |  | inactive: -13.5%
15 | CN1C2=CC=CC=CC2=[N+](C)C12C([N+](=O)[O-])=CC(=[N+]([O-])[O-])C=C2[N+](=O)[O-] (stereo not drawn) |  | inactive: -0.344%
16 | CC(CC(=O)Nc1ccc2c(c1)c(=O)n(C)n2Cc1ccc(F)cc1)c1ccccc1 (stereo not drawn) | inconclusive: 12.5 µM [inhibitor, single point] | 
17 | CCOC(=O)c1cc(-c2ccccc2)sc1NC(=S)Nc1cc(C)ccn1 | active: 8.2 µM | 
18 | Nc1c(C(=O)c2ccccc2)sc2nsc(SCCN3CCOCC3)c12 | inconclusive: 5.8 µM [inhibitor, partial curve] | 
19 | N#C/C(N=Nc1ccccc1O)=N\Nc1ccccc1O | active: 14.6 µM | 
20 | COc1ccc2nc(NC(=S)NC(=O)c3ccco3)sc2c1 |  | inactive: -0.262%
21 | COc1cc(OC)cc(C(=O)N2CC(=O)Nc3ccccc32)c1 | inconclusive: 1.77 µM [inhibitor, full curve] | 
22 | CCSc1ncc(Cl)c(C(=O)N2CCN(c3ccccc3OC)CC2)n1 | inconclusive: 2.91 µM [inhibitor, full curve] | 
23 | CCCCOc1ccc2c(c1)/C(=C(\C(Cl)=C(Cl)Cl)[N+](=O)[O-])N2 |  | inactive: -18.3%

Row | SMILES | Potency | max response
24 | Cc1ccc2nc(/C(C#N)=C\c3ccc(OC(=O)c4cccs4)cc3)[nH]c2c1 | inconclusive: 4.44 µM [inhibitor, full curve] | 
25 | COc1ccc(N2C(=O)CC(Sc3nc(C)c4c(n3)CCCC4)C2=O)cc1 (stereo not drawn) | inconclusive: 4.98 µM [inhibitor, full curve, poor fit] | 
26 | COc1cccc(N=C2NC(=O)/C(=C/c3cc([N+](=O)[O-])ccc3O)S2)c1 |  | inactive: -16.1%
27 | COc1cccc(C2=CC(c3cc(OC)ccc3OC)n3nnnc3N2)c1 (stereo not drawn) | inconclusive: 2.8 µM [inhibitor, full curve, poor fit] | 
28 | CCOC(=O)N1CCN(C(=O)c2[nH]c(C(F)(F)F)nc2-c2ccccc2)CC1 | inconclusive: 12.5 µM [inhibitor, single point] | 
29 | Cc1ccc(S(=O)(=O)Nc2nc3ccccc3nc2Nc2cccc(S(=O)(=O)N3CCCC3)c2)cc1 | inconclusive: 29.1 µM [inhibitor, single point] | 
30 | COc1ccc(-c2cc(NC(C)=O)c3ncc(-c4cc(OC)c(OC)c(OC)c4)n3c2)cn1 | active: 4.98 µM | 
31 | COc1cccc(Nc2ncccc2C(=O)NCc2ccccc2)c1 | inconclusive: 15.8 µM [inhibitor, single point] | 
32 | Cc1cc(C)cc(Oc2nc(C(F)(F)F)nc3ccccc23)c1 |  | inactive: -26.3%
33 | COc1ccc(-c2cnc3c(c2)CCC3(C#N)C#N)cc1 | inconclusive: 11.2 µM [inhibitor, partial curve] | 
34 | CCOC(=O)c1c(-c2ccc(OC)cc2)csc1/N=C/C1=C(O)CCCC1=O |  | inactive: -6.09%
35 | CCOC(=O)Cc1ccc(Nc2nc3cc(-c4sccc4C)sc3c(=O)n2C)cc1 | inconclusive: 4.98 µM [inhibitor, full curve, poor fit] | 
36 | CC(C)N1CCc2c(sc(NC(=O)c3cc4cc([N+](=O)[O-])ccc4s3)c2C(N)=O)C1 | active: 20.6 µM | 
37 | O=c1[nH]cnc2n[nH]nc12 | active: 2.31 µM | 
38 | O=S(=O)(Nc1cc2nc3ccccc3nc2n1Cc1ccccc1)c1ccc(Cl)cc1 | inconclusive: 17.7 µM [inhibitor, single point] | 
39 | CCN(CC(=O)Nc1ccccc1-c1ccccc1)Cc1nc2ccccc2c(=O)[nH]1 | inconclusive: 9.94 µM [inhibitor, partial curve] | 
40 | c1ccc(C2CNCc3c2ccc2ccccc32)cc1 (stereo not drawn) | inconclusive: 25 µM [inhibitor, single point] | 
41 | COc1ccc2nc(SCC(C)=O)c(C#N)cc2c1 | inconclusive: 4.11 µM [inhibitor, full curve] | 
42 | CN(C)c1ccc(/C=C/c2ccnc3ccccc23)cc1O | active: 11.6 µM | 
43 | CCOc1cc(/C=C2\CN(C)C/C(=C\c3ccc(O)c(OCC)c3)C2=O)ccc1O | inconclusive: 3.96 µM [inhibitor, single point] | 
44 | N#C/C(=C\c1ccc(N2CCCCC2)o1)C(N)=O | active: 15.8 µM | 
45 | COc1ccc(C)cc1Nc1c2c(nc3ccccc13)CCC2 | inconclusive: 1.4 µM [inhibitor, full curve] | 
46 | Cc1cc(/C=C2\SC(=S)N(Cc3ccco3)C2=O)c(C)n1-c1ccccc1 | active: 18.4 µM | 

Numbers 26 to 43 of the list above:
Row | SMILES | Potency | max response
26 | COc1cccc(N=C2NC(=O)/C(=C/c3cc([N+](=O)[O-])ccc3O)S2)c1 |  | inactive: -16.1%
27 | COc1cccc(C2=CC(c3cc(OC)ccc3OC)n3nnnc3N2)c1 (stereo not drawn) | inconclusive: 2.8 µM [inhibitor, full curve, poor fit] | 
28 | CCOC(=O)N1CCN(C(=O)c2[nH]c(C(F)(F)F)nc2-c2ccccc2)CC1 | inconclusive: 12.5 µM [inhibitor, single point] | 
29 | Cc1ccc(S(=O)(=O)Nc2nc3ccccc3nc2Nc2cccc(S(=O)(=O)N3CCCC3)c2)cc1 | inconclusive: 29.1 µM [inhibitor, single point] | 
30 | COc1ccc(-c2cc(NC(C)=O)c3ncc(-c4cc(OC)c(OC)c(OC)c4)n3c2)cn1 | active: 4.98 µM | 
31 | COc1cccc(Nc2ncccc2C(=O)NCc2ccccc2)c1 | inconclusive: 15.8 µM [inhibitor, single point] | 
32 | Cc1cc(C)cc(Oc2nc(C(F)(F)F)nc3ccccc23)c1 |  | inactive: -26.3%
33 | COc1ccc(-c2cnc3c(c2)CCC3(C#N)C#N)cc1 | inconclusive: 11.2 µM [inhibitor, partial curve] | 
34 | CCOC(=O)c1c(-c2ccc(OC)cc2)csc1/N=C/C1=C(O)CCCC1=O |  | inactive: -6.09%
35 | CCOC(=O)Cc1ccc(Nc2nc3cc(-c4sccc4C)sc3c(=O)n2C)cc1 | inconclusive: 4.98 µM [inhibitor, full curve, poor fit] | 
36 | CC(C)N1CCc2c(sc(NC(=O)c3cc4cc([N+](=O)[O-])ccc4s3)c2C(N)=O)C1 | active: 20.6 µM | 
37 | O=c1[nH]cnc2n[nH]nc12 | active: 2.31 µM | 
38 | O=S(=O)(Nc1cc2nc3ccccc3nc2n1Cc1ccccc1)c1ccc(Cl)cc1 | inconclusive: 17.7 µM [inhibitor, single point] | 
39 | CCN(CC(=O)Nc1ccccc1-c1ccccc1)Cc1nc2ccccc2c(=O)[nH]1 | inconclusive: 9.94 µM [inhibitor, partial curve] | 
40 | c1ccc(C2CNCc3c2ccc2ccccc32)cc1 (stereo not drawn) | inconclusive: 25 µM [inhibitor, single point] | 
41 | COc1ccc2nc(SCC(C)=O)c(C#N)cc2c1 | inconclusive: 4.11 µM [inhibitor, full curve] | 
42 | CN(C)c1ccc(/C=C/c2ccnc3ccccc23)cc1O | active: 11.6 µM | 
43 | CCOc1cc(/C=C2\CN(C)C/C(=C\c3ccc(O)c(OCC)c3)C2=O)ccc1O | inconclusive: 3.96 µM [inhibitor, single point] | 

Carrying on.

Row | SMILES | Potency | max response
47 | COc1ccc(-c2n[nH]c3c2CN(C(=O)c2ccc(OC)c(OC)c2)CC3)cc1 | inconclusive: 2.23 µM [inhibitor, full curve] | 
48 | CC(=O)c1ccc(-c2ccc(C(=O)Nc3nc(-c4ccccn4)cs3)o2)cc1 | inconclusive: 25 µM [inhibitor, single point] | 
49 | CSc1cccc(NC(=O)c2cc3c(COC(C)=O)cnc(C)c3oc2=O)c1 |  | inactive: -5.04%
50 | COc1ccc(CN=Cc2[nH]c3ccc(Br)c(Cl)c3c2O)cc1 | inconclusive: 15.8 µM [inhibitor, partial curve] | 
51 | COc1ccc(OC)c(C2C=C(c3ccc(C)c(C)c3)Nc3nnnn32)c1 (stereo not drawn) | inconclusive: 1.58 µM [inhibitor, full curve, poor fit] | 
52 | CCCCn1c(N)c(N(CC(C)C)C(=O)Cc2ccc(S(=O)(=O)N3CCOCC3)s2)c(=O)[nH]c1=O | active: 23.1 µM | 
53 | CN(C)c1ccc(/C=C2\NC(=S)N(Cc3ccccc3)C2=O)cc1 | inconclusive: 3.96 µM [inhibitor, single point] | 
54 | COc1ccccc1N1C(=O)c2cccc3c(C(=O)O)ccc(c23)C1=O |  | inactive: 1.5%
55 | CCN(CC)c1ccc2c(c1)OC(N)=C(C#N)C2c1cccnc1 (stereo not drawn) | active: 17.7 µM | 
56 | Cc1cccc2c(=O)n3c(cc12)-c1[nH]c2ccccc2c1CC3 | inconclusive: 29.1 µM [inhibitor, single point] | 
57 | COc1ccc(S(=O)(=O)N2CCCOC2CNC(=O)C(=O)NCCc2ccco2)cc1C (stereo not drawn) | inconclusive: 7.9 µM [inhibitor, partial curve] | 
58 | CCOc1ccccc1C1NC(=O)c2ccccc2N1 (stereo not drawn) | inconclusive: 1.25 µM [inhibitor, full curve] | 
59 | O=Nc1ccc(O)c2ncccc12 | inconclusive: 4.44 µM [inhibitor, full curve] | 
60 | CCN1C(=O)/C(=C/c2ccc(N3CCCC3)cc2)NC1=S | inconclusive: 5.8 µM [inhibitor, single point] | 
61 | COc1ccc(OC)c(NS(=O)(=O)c2ccc(Cl)s2)c1 | inconclusive: 15.8 µM [inhibitor, single point] | 
62 | Cc1cc2nc3c(=O)n(Cc4ccccc4)c(=O)[nH]c3nc2cc1N | inconclusive: 0.498 µM [inhibitor, partial curve] | 
63 | CCOC(=O)C(C)Oc1cccc2c(=O)n(CC(=O)NCc3ccco3)ccc12 (stereo not drawn) | inconclusive: 1.4 µM [inhibitor, full curve] | 
64 | CCN(CC)c1ccc(NC(=O)c2cccc(F)c2)c(C)c1 | inconclusive: 7.04 µM [inhibitor, partial curve] | 
65 | Cc1ccc(NC(=O)Cc2ccc(-n3cccc3)cc2)c(C)c1 |  | inactive: -1.25%
66 | COc1cc(/C=C2\COC/C(=C\c3cc(OC)c(OC)c(OC)c3)C2=O)cc(OC)c1OC | inconclusive: 2.8 µM [inhibitor, full curve] | 
67 | Cc1cc2nc3c(=O)n(CCc4ccccc4)c(=O)[nH]c3nc2cc1N | inconclusive: 4.61 µM [inhibitor, single point] | 
68 | O=C(COC(=O)c1ccc(NS(=O)(=O)c2cccs2)cc1)NCc1ccco1 | inconclusive: 15.8 µM [inhibitor, partial curve] | 
